Assay results reported in patent publication EP3556767A1 (Universidade De Santiago De Compostela, priority 2018, dated 2019).
Some peptides are written in HELM: one residue between dots, names in brackets for other building blocks, links after the first $.

Experiment: general procedure: Fmoc solid-phase peptide synthesis; Rink Amide ChemMatrix resin (loading 0.5 mmol/g) in protocol 1; Rink Amide resin (loading 0.71 mmol/g) in protocol 2; N-HBTU/DIEA (manual); DIC/Oxyma (automated)
Conditions: whole synthesis, analytical HPLC, 1H-NMR and mass spectrometry, scale of the general procedure 0.5 mmol manual, 0.05 mmol automated (protocol 1), 0.1 mmol
With “PEPTIDE1{[ac].R.K.L.R.R.L.L.R.R.L.K.R.L.[am]}|PEPTIDE2{[Biot]}|PEPTIDE3{[Biot]}$PEPTIDE1,PEPTIDE2,3:R3-1:R2|PEPTIDE1,PEPTIDE3,12:R3-1:R2$$$V2.0” the “final HPLC purity” value was 100%.

Same assay, conditions: whole synthesis, overall, scale of the general procedure 0.5 mmol manual, 0.05 mmol automated (protocol 1), 0.1 mmol
Substance “PEPTIDE1{[Tm].A.R.A.A.A.A.A.A.R.A.A.A.A.A.A.R.[am]}$$$$V2.0” has an isolated yield of 12%. For “PEPTIDE1{[Tm].A.R.A.L.A.A.L.A.R.A.A.A.A.A.A.R.[am]}$$$$V2.0”, the isolated yield was 10.7%. Work on “PEPTIDE1{[Tm].A.R.A.L.A.A.L.A.R.A.L.A.A.A.A.R.[am]}$$$$V2.0” yielded an isolated yield of 5.3%. Substance “PEPTIDE1{[Tm].L.R.A.L.A.A.L.A.R.A.A.A.A.A.A.R.[am]}$$$$V2.0” has an isolated yield of 1.7%. “PEPTIDE1{[Tm].L.R.A.L.R.R.L.A.A.A.A.A.A.A.A.A.[am]}$$$$V2.0” showed an isolated yield of 6.5%. Work on “PEPTIDE1{[ac].L.R.A.L.A.A.L.A.R.A.A.A.A.A.A.R.[am]}$$$$V2.0” yielded an isolated yield of 1.7%. In the case of “PEPTIDE1{[ac].R.K.L.R.R.L.L.R.R.L.K.R.L.[am]}|PEPTIDE2{[Biot]}|PEPTIDE3{[Biot]}$PEPTIDE1,PEPTIDE2,3:R3-1:R2|PEPTIDE1,PEPTIDE3,12:R3-1:R2$$$V2.0”, the isolated yield is reported as 11%. In the case of TmHexA R AALLAA R AALA3 R, the isolated yield is reported as 8.7%. With TmHexA R ALAALA R ALA4 R the isolated yield was 6.4%.
